Experimental data as given in the supplement of paper PMC10849652.
The other results are listed elsewhere or left out.

Chains of the proteins cited; added tags and fusions are not shown. Lines headed by an entry give the natural chain unless they say otherwise; changes in a name come on top.
UniProt P48444: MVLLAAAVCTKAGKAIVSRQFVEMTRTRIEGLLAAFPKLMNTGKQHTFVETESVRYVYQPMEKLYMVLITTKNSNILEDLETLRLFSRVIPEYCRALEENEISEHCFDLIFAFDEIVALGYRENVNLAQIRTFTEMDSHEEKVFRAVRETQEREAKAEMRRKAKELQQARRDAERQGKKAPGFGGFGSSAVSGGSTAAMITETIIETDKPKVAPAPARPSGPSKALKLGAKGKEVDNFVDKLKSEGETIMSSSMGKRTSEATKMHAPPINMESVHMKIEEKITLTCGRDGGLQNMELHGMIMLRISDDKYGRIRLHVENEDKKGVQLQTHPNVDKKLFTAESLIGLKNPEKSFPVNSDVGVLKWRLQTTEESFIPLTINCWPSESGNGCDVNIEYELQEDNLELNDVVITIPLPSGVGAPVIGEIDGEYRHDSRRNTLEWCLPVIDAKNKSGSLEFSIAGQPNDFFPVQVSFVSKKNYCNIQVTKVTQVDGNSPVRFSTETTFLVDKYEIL
UniProt P61204: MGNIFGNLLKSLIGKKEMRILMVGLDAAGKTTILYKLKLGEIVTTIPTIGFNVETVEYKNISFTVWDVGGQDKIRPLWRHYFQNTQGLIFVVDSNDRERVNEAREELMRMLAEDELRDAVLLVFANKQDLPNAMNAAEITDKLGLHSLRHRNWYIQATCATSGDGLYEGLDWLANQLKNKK
UniProt O60306: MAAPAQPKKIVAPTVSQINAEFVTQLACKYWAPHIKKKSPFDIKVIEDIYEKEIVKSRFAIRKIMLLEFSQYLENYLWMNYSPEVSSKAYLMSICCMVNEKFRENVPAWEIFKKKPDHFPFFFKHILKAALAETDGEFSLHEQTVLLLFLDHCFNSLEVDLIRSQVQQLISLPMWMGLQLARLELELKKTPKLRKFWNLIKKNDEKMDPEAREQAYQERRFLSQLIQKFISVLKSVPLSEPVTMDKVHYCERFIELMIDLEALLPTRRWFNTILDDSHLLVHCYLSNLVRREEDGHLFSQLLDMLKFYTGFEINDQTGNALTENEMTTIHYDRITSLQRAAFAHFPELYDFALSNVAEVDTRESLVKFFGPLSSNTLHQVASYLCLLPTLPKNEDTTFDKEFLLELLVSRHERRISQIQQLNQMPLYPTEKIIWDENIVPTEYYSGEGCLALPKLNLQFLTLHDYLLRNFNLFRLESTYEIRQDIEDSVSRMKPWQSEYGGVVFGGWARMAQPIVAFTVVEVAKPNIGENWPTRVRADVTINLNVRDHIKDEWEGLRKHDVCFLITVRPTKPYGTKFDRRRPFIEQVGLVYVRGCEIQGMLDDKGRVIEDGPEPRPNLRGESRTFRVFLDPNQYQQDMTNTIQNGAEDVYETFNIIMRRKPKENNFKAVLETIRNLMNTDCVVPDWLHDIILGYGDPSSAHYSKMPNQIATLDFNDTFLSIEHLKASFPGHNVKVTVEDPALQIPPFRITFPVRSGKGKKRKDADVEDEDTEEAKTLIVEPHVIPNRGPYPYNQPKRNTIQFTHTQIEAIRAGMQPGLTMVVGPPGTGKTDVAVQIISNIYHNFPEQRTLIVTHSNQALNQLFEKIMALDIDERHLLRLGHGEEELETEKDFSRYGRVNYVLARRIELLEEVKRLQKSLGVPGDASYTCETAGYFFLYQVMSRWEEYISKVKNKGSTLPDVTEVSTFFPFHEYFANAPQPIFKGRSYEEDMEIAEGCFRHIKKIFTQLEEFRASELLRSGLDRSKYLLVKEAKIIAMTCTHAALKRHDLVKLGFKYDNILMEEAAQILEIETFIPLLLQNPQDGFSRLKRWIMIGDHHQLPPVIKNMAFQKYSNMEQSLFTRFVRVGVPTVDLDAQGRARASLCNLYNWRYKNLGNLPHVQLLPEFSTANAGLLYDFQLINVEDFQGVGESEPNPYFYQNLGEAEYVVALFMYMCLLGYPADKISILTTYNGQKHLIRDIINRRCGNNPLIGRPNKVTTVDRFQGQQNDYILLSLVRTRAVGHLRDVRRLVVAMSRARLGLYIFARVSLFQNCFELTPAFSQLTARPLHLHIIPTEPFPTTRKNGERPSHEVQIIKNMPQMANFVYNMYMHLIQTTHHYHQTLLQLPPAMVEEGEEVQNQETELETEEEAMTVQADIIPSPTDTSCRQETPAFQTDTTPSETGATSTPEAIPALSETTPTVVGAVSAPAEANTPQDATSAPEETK
UniProt Q66PJ3: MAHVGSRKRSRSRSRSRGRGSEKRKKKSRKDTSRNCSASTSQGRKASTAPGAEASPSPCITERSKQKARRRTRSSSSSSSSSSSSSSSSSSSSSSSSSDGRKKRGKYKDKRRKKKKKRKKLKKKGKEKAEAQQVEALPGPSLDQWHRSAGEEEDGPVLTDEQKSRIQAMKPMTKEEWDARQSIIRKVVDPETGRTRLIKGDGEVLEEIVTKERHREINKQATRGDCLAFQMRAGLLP
UniProt Q96GX9: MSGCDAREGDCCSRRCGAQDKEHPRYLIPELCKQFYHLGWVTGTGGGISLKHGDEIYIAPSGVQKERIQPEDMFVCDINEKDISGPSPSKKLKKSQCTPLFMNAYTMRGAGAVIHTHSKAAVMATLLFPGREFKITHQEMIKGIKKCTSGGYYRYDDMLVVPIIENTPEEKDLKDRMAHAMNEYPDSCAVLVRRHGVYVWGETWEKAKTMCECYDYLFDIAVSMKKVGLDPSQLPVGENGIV
UniProt Q96AK3: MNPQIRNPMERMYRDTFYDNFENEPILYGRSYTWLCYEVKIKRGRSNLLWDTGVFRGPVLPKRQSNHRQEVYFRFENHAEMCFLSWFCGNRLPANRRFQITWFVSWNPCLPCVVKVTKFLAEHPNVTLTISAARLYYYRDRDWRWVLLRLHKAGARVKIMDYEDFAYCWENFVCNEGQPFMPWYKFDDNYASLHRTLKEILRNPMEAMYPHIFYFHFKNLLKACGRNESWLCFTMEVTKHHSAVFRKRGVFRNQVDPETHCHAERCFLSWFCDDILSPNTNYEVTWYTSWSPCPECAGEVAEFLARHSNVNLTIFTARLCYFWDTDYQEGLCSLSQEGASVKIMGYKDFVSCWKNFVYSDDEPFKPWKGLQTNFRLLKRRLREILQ
UniProt Q68CP9, whole entry, looked up: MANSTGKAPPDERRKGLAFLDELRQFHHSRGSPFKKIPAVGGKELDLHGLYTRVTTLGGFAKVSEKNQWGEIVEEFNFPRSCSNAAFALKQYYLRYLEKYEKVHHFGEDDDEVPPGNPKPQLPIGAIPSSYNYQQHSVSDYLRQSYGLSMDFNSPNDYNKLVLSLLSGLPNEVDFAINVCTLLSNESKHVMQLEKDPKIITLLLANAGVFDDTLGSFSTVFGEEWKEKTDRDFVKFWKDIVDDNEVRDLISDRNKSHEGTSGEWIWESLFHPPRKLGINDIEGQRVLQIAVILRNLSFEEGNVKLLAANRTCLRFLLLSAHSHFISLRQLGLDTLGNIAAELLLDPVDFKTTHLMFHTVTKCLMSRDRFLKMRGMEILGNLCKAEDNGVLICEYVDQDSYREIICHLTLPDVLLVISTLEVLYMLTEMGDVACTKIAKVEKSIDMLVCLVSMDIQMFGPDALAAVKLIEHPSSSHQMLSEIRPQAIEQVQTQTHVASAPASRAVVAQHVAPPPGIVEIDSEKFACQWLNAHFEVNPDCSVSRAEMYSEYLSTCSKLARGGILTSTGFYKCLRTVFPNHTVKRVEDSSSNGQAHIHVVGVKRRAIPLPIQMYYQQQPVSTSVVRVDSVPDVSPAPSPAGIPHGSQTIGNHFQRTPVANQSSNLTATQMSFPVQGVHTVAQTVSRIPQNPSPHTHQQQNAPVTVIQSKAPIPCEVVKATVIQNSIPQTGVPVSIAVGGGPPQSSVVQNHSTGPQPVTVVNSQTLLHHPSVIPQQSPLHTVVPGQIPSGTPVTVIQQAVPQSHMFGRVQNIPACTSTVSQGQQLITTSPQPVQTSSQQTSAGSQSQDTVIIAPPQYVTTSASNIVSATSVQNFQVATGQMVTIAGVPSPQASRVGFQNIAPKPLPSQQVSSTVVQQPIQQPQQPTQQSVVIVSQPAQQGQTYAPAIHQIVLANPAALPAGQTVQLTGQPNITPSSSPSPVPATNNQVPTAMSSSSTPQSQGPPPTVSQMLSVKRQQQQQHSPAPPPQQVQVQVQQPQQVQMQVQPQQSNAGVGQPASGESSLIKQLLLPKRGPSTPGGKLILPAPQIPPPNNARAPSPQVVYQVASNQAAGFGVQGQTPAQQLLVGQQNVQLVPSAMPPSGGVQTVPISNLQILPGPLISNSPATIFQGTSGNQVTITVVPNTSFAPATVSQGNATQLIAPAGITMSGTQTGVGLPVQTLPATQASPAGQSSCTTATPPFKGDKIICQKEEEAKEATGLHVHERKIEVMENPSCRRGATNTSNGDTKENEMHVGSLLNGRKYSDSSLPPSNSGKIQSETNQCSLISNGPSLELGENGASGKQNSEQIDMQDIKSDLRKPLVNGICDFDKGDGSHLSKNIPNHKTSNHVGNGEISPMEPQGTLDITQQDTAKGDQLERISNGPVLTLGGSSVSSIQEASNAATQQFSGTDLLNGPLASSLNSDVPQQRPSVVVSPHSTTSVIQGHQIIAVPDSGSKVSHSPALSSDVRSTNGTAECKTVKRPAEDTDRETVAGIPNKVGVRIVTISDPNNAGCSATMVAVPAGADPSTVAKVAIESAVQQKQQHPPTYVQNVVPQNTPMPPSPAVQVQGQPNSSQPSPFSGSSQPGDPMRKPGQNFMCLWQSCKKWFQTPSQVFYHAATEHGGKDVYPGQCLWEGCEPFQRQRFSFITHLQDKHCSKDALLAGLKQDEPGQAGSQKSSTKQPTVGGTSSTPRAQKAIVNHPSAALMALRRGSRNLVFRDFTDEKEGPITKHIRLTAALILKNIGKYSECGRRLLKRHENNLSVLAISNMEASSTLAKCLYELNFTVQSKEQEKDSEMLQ
UniProt Q9HDC9: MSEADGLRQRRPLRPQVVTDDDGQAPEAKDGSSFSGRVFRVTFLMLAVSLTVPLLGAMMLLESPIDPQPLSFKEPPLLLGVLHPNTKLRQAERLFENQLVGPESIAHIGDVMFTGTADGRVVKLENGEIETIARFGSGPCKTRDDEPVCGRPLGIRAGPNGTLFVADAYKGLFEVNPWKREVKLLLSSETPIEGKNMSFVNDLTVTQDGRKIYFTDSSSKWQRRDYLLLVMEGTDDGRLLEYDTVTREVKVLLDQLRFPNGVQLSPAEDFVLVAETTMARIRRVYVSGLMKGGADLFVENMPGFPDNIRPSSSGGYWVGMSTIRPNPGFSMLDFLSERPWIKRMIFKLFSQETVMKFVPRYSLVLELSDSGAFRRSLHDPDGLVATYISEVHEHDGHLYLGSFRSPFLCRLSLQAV
UniProt P32121, whole entry, looked up: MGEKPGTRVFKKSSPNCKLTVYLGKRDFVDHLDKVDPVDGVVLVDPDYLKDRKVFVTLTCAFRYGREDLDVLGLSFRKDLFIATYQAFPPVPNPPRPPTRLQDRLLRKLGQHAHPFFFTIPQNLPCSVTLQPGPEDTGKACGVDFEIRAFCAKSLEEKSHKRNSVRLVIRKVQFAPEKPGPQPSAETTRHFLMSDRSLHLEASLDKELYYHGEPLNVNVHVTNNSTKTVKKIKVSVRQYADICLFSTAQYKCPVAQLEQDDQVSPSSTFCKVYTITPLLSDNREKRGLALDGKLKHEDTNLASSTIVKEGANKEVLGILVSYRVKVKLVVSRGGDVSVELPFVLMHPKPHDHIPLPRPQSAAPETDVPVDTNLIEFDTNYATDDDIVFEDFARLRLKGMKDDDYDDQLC
UniProt P49407: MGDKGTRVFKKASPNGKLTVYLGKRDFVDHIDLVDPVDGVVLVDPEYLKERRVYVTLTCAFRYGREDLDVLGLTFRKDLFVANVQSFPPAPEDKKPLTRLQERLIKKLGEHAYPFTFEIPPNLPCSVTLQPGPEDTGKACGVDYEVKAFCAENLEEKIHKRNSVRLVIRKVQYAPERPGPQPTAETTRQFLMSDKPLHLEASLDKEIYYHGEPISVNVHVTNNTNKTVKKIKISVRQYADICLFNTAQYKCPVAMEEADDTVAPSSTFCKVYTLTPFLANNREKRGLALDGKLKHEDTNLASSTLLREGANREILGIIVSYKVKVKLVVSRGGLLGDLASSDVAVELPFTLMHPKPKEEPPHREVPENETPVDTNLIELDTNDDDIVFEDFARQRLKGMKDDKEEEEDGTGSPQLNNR
UniProt Q13510, whole entry, looked up: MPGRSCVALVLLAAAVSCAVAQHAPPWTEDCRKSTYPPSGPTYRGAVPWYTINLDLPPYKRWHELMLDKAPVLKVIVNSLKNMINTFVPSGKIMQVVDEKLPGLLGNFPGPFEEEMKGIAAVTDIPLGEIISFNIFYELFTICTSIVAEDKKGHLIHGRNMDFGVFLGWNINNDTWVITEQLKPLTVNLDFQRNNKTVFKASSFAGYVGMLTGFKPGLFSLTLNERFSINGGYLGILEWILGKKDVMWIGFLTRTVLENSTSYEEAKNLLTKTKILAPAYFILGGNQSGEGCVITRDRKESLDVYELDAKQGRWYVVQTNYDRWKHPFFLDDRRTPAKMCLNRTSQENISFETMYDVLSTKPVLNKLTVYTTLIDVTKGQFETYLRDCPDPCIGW

How the values were obtained:
Assay in all cases: log2 fold change, soluble protein after heating vs DMSO (PISA); higher = thermal stabilisation; K562 lysate, 10 uM; active = over 0.2 and 3.5 SD of the protein, either way, in both replicates (recomputed)
[1] = compound: CCCS(=O)(=O)Nc1ccc(F)c(C(=O)c2c[nH]c3ncc(-c4ccc(Cl)cc4)cc23)c1F [vemurafenib]
How it was run: (§1)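 K562 pellets were dounce-homogenised in PBS pH 7.4 with 1 mM MgCl2, and the crude extract at 1 mg/mL protein was treated with 10 μM compound for 30 min. Aliquots were heated for 3 min across 48°C-58°C, pooled, and brought to 0.5% NP-40 at 4°C; soluble protein was the supernatant after 21,000xg for 90 min. Soluble protein was quantified by TMTpro 16plex LC-MS/MS with channel sums equalised, and reported as log2 fold change in thermal stability against DMSO controls, with values from duplicates.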

[2] = compound: CCCS(=O)(=O)Nc1ccc(F)c(C(=O)c2c[nH]c3ncc(Cl)cc23)c1F
How it was run: as §1

[3] = compound: CCN(CCCOc1ccc2c(Nc3cc(CC(=O)Nc4cccc(F)c4)[nH]n3)ncnc2c1)CCOP(=O)(O)O [barasertib]
How it was run: as §1

[4] = compound: CC[C@@H]1C(=O)N(C)c2cnc(Nc3ccc(C(=O)NC4CCN(C)CC4)cc3OC)nc2N1C1CCCC1
How it was run: as §1

[5] = compound: CC[C@@H]1C(=O)N(C)c2cnc(Nc3ccc(C(=O)N[C@H]4CC[C@H](N5CCN(CC6CC6)CC5)CC4)cc3OC)nc2N1C(C)C [volasertib]
How it was run: as §1

[6] = compound: CCn1c(C(=O)N(C2CC2)C2CC2)cc2c3c(ncn3C)c(Nc3cc(C)n(C)n3)nc21
How it was run: as §1

[7] = compound: CCn1cc(-c2ccnc3[nH]c(-c4cccc(CN(C)C)c4)cc23)c(-c2ccc(NC(=O)N(C)C)cc2)n1
How it was run: as §1

[8] = compound: CN1CCC(CNc2ccc3ncc(-c4cccc(OC(F)(F)F)c4)n3n2)CC1
How it was run: as §1

[9] = compound: CN1CCN(CCOc2cc(OC3CCOCC3)c3c(Nc4c(Cl)ccc5c4OCO5)ncnc3c2)CC1 [saracatinib]
How it was run: as §1

[10] = compound: CN1CCN(c2nc(C3=C(c4c[nH]c5ccccc45)C(=O)NC3=O)c3ccccc3n2)CC1 [sotrastaurin]
How it was run: as §1

Measured: log2 fold change

ARCN1 (UniProt P48444)
inactive: [1] -0.021 | [2] -0.006 | [3] -0.03 | [4] -0.017 | [5] -0.009 | [6] -0.005 | [7] -0.002 | [8] 0.001 | [9] -0.001 | [10] -0.02

ARF3 (UniProt P61204)
inactive: [1] -0.003 | [2] 0.001 | [3] 0.069 | [4] 0.027 | [5] 0.024 | [6] -0.013 | [7] -0.135 | [8] 0.097 | [9] -0.023 | [10] 0.005

AQR (UniProt O60306)
inactive: [1] 0.034 | [2] 0.027 | [3] 0.012 | [4] -0.063 | [5] -0.083 | [6] 0.011 | [7] -0.062 | [8] 0.01 | [9] -0.049 | [10] 0.033

ARAP1 (UniProt Q96P48)
inactive: [1] -0.014 | [2] 0.006 | [3] 0.013 | [4] -0.034 | [5] -0.085 | [6] 0.029 | [7] -0.076 | [8] 0.015 | [9] -0.001 | [10] 0.006

ARMC1 (UniProt Q9NVT9)
inactive: [1] 0.038 | [2] 0.046 | [3] 0 | [4] 0.01 | [5] -0.018 | [6] 0.007 | [7] -0.027 | [8] 0.006 | [9] -0.005 | [10] -0.003

ARPC3 (UniProt O15145)
inactive: [1] 0.016 | [2] 0.036 | [3] -0.006 | [4] 0.014 | [5] -0.005 | [6] 0.044 | [7] 0.039 | [8] -0.072 | [9] 0.021 | [10] -0.011

ARID1B isoform 3 (UniProt Q8NFD5)
inactive: [1] -0.039 | [2] 0.04 | [3] 0.043 | [4] -0.03 | [5] 0.001 | [6] 0.014 | [7] 0.155 | [8] -0.051 | [9] 0.024 | [10] 0.005

ARPC5 (UniProt O15511)
inactive: [1] -0.01 | [2] -0.066 | [3] 0.007 | [4] 0.048 | [5] 0.04 | [6] -0.011 | [7] -0.053 | [8] 0.005 | [9] -0.035 | [10] 0.024

ARL6IP4 (UniProt Q66PJ3)
inactive: [1] 0.19 | [2] 0.012 | [3] -0.002 | [4] 0.044 | [5] 0.049 | [6] -0.064 | [7] 0.011 | [8] 0.002 | [9] 0.043 | [10] 0.012

APBA2 (UniProt Q99767)
inactive: [1] 0.003 | [2] 0 | [3] 0.035 | [4] -0.043 | [5] 0.017 | [6] -0.028 | [7] -0.157 | [8] 0.15 | [9] 0.021 | [10] 0.057

APIP (UniProt Q96GX9)
inactive: [1] -0.009 | [2] 0.024 | [3] 0.095 | [4] 0.041 | [5] 0.038 | [6] -0.058 | [7] -0.145 | [8] 0.135 | [9] 0.021 | [10] -0.035

APOBEC3D (UniProt Q96AK3)
inactive: [1] 0.033 | [2] 0.084 | [3] 0.019 | [4] -0.013 | [5] -0.02 | [6] 0.04 | [7] -0.085 | [8] 0.033 | [9] -0.089 | [10] 0.028

ARPC5L (UniProt Q9BPX5)
inactive: [1] 0.011 | [2] -0.013 | [3] 0.021 | [4] 0.058 | [5] 0.018 | [6] -0.001 | [7] -0.023 | [8] 0.011 | [9] -0.033 | [10] -0.009

ARPP19 (UniProt H3BMD8)
inactive: [1] 0.001 | [2] -0.004 | [3] -0.001 | [4] 0.145 | [5] 0.001 | [6] -0.055 | [7] -0.199 | [8] 0.171 | [9] 0.016 | [10] 0.093

ARHGAP4 isoform 2 (UniProt P98171)
inactive: [1] -0.023 | [2] 0.031 | [3] 0.007 | [4] 0.01 | [5] -0.06 | [6] 0.047 | [7] 0.124 | [8] -0.011 | [9] -0.029 | [10] -0.05

ARFGEF1 (UniProt Q9Y6D6)
inactive: [1] 0.011 | [2] 0.025 | [3] 0.068 | [4] -0.031 | [5] -0.039 | [6] 0.05 | [7] -0.031 | [8] -0.044 | [9] 0.005 | [10] 0.004

ARID2 (UniProt Q68CP9)
inactive: [1] 0.047 | [2] -0.023 | [3] 0.011 | [4] -0.106 | [5] -0.034 | [6] 0.134 | [7] -0.086 | [8] -0.007 | [9] 0.013 | [10] -0.043

ARFGAP2 (UniProt Q8N6H7)
inactive: [1] -0.055 | [2] 0.008 | [3] 0.007 | [4] 0.031 | [5] -0.003 | [6] 0.029 | [7] -0.015 | [8] 0.054 | [9] 0.002 | [10] -0.009

ARHGAP21 (UniProt Q5T5U3)
inactive: [1] 0.107 | [2] 0.073 | [3] 0.061 | [4] -0.01 | [5] -0.027 | [6] 0.037 | [7] 0.043 | [8] -0.202 | [9] 0.034 | [10] 0.023

ARPC4 isoform 3 (UniProt P59998)
inactive: [1] -0.012 | [2] -0.024 | [3] 0.029 | [4] -0.012 | [5] 0.026 | [6] 0.047 | [7] 0.005 | [8] 0.033 | [9] 0 | [10] -0.006

ARHGAP45 isoform 2 (UniProt Q92619)
inactive: [1] 0.017 | [2] -0.005 | [3] -0.087 | [4] 0.023 | [5] -0.047 | [6] -0.004 | [7] 0.012 | [8] 0.004 | [9] -0.032 | [10] -0.025

APMAP (UniProt Q9HDC9)
inactive: [1] 0.011 | [2] -0.001 | [3] 0.03 | [4] -0.003 | [5] 0.02 | [6] 0.007 | [7] 0.014 | [8] 0.03 | [9] -0.005 | [10] 0.003

ARRB2 isoform 3 (UniProt P32121)
inactive: [1] 0.035 | [2] -0.02 | [3] 0.036 | [4] 0.031 | [5] 0.03 | [6] 0.004 | [7] -0.116 | [8] 0.039 | [9] 0.017 | [10] 0.022

Pulled one by one from above, 2 records:
ARHGAP45 isoform 2 (UniProt Q92619)
inactive: [1] 0.017 | [2] -0.005 | [3] -0.087 | [4] 0.023 | [5] -0.047 | [6] -0.004 | [7] 0.012 | [8] 0.004 | [9] -0.032 | [10] -0.025

ARHGAP21 (UniProt Q5T5U3)
inactive: [1] 0.107 | [2] 0.073 | [3] 0.061 | [4] -0.01 | [5] -0.027 | [6] 0.037 | [7] 0.043 | [8] -0.202 | [9] 0.034 | [10] 0.023

(next part)

ARMC10 (UniProt Q8N2F6)
inactive: [1] 0.032 | [2] -0.011 | [3] 0.051 | [4] -0.038 | [5] -0.026 | [6] 0.024 | [7] -0.018 | [8] 0.025 | [9] -0.021 | [10] 0.026

ARSA (UniProt P15289)
inactive: [1] 0.034 | [2] 0.009 | [3] 0.149 | [4] 0.025 | [5] 0.021 | [6] 0.021 | [7] 0.17 | [8] 0.027 | [9] -0.018 | [10] 0.025

ARF4 (UniProt P18085)
inactive: [1] 0 | [2] -0.029 | [3] 0.034 | [4] -0.125 | [5] -0.054 | [6] 0.042 | [7] -0.192 | [8] 0.11 | [9] -0.024 | [10] -0.036

ARRB1 (UniProt P49407)
inactive: [1] 0.042 | [2] 0 | [3] -0.02 | [4] 0 | [5] 0.002 | [6] -0.015 | [7] -0.06 | [8] 0.04 | [9] -0.005 | [10] 0.001

ARL8B (UniProt Q9NVJ2)
inactive: [1] -0.007 | [2] -0.017 | [3] -0.03 | [4] 0.088 | [5] 0.028 | [6] 0.007 | [7] -0.128 | [8] 0.049 | [9] 0.009 | [10] 0.046

ASAH1 isoform 2 (UniProt Q13510)
inactive: [1] 0.019 | [2] 0.018 | [3] -0.051 | [4] -0.009 | [5] 0.056 | [6] -0.019 | [7] -0.119 | [8] 0.081 | [9] 0.035 | [10] 0.034

ARHGAP12 (UniProt Q8IWW6)
inactive: [1] 0.111 | [2] 0.049 | [3] 0.018 | [4] 0.212 | [5] -0.019 | [6] -0.172 | [7] -0.147 | [8] 0.119 | [9] 0.049 | [10] -0.013
